Changes are numbered by the printed parent chain. No constants are given. Whether binding was seen depends on the method and setting. Some binding calls cover weakened binding; strength is not graded here.

Holding throughout (experiment): two-hybrid; Gal4 BD fusions (pGBT9) of Pex3 and Gal4 AD fusions (pGAD424) of Pex19 or TbPex3 in S. cerevisiae HF7c; growth on -His -Leu -Trp medium
For test [1], the target named is T1, ScPex3-W128A (S. cerevisiae) (UniProt P28795).
T1 sequence: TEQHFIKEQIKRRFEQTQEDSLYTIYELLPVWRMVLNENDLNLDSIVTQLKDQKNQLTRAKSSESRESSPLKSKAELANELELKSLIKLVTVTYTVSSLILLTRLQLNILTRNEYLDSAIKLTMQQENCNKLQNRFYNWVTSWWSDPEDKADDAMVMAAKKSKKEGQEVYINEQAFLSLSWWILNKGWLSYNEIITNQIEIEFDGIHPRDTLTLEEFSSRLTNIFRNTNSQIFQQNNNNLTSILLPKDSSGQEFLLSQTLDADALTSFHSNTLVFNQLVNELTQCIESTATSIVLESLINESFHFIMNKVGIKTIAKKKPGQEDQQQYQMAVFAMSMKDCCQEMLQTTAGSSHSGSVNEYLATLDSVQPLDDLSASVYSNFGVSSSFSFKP

For test [2], the target named is T2, ScPex3-K124A (S. cerevisiae) (UniProt P28795).
T2 sequence: T1 sequence with K74A, A78W

Test [3] has as its target T3, ScPex3-Y144A (S. cerevisiae) (UniProt P28795).
T3 sequence: T1 sequence with A78W, Y94A

The target of the next test is T4, ScPex3 (S. cerevisiae) (UniProt P28795).
T4 sequence: T1 sequence with A78W

B1: ScPex19 (protein, UniProt Q07418 1-342)
chain: MNENEYDNFDDLDDLLDEDPTKLDEAEPDDVQAKGSVYNDSENKEKNAESKDSDGVQVANESEEDPELKEMMVDLQNEFANLMKNNGNENNVKTEDFNKLISALEEAAKVPHQQMEQGCSSLKSNSTDKGTVNGSNPGFKNIVSNTLDRLKENGNKVDTSLAEETKESQRSGQNNNIDDILSQLLDQMVASGGKESAENQFDLKDGEMDDAITKILDQMTSKEVLYEPMKEMRSEFGVWFQENGENEEHKEKIGTYKRQFNIVDEIVNIYELKDYDELKHKDRVTELLDELEQLGDSPIRSANSPLKHGNEEEELMKMLEIDGNDPNLGNLDKELTDGCKQQ
Turning to B1, the binding entry is on record as “no binding” in test [1], “binds” in test [2], “no binding” in test [3] and “binds” with ScPex3 (S. cerevisiae).

Source of the values: PMC6658674.
